Out of some 320,000 compounds screened, about 22,000 (6.9%) were called active. Inconclusive means that the source gave no clear call. Such entries were picked first, then a sample of the others. Calls follow the shape of the dose curve; as a rule, active = well fitted inhibition curve with a large enough effect; inconclusive = small, poorly fitted or top-dose-only effect, or another doubt; inactive = no such curve, though single readings can be large or run the other way. Potencies beside an inconclusive call are fits to weak or partial responses and may not hold up.
test: Primary qHTS for delayed death inhibitors of the malarial parasite plastid, 96 hour incubation; conditions: P. falciparum luciferase reporter growth; series mostly up to 28.7 µM
Summary of the method: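 Luminescence readout: decreased luciferase signal marks inhibited growth of reporter-expressing P. falciparum in infected red cells (2% hematocrit, 0.05% parasitemia final), exposed to compound two generations (96 h, 37 C, 5% CO2).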
Potency is read from the fitted curve at half-maximal effect.

Structure (SMILES)	Potency
CCSc1nc2ccccc2n1CC(=O)O	inconclusive: 18.5 µM [inhibitor, single point]
COc1ccc(C(=O)C23CC4CC(C2)CC(C(=O)c2ccc(OC)cc2)(C4)C3)cc1	inconclusive: 4.15 µM [inhibitor, partial curve, poor fit]
Cc1csc(NC(=O)CSc2nnc(CCNC(=O)c3cccs3)n2C)n1	inconclusive: 18.5 µM [inhibitor, single point]
COc1cc(/C=C2\SC(=S)N(CCC(=O)NCCc3ccccc3)C2=O)cc(OC)c1OC	inactive
Cc1c(C)n2c(SCC(=O)Nc3cccc4ccccc34)nnc2[nH]c1=O	inconclusive: 2.08 µM [inhibitor, full curve]
O=C(/C=C/c1ccc(Cl)cc1Cl)NC(=S)Nc1ccc(CN2CCOCC2)cc1	inactive
CN(CCCNC(=O)CCc1cn(C)c2ccccc12)C1CCCCC1	inactive
O=C(CS(=O)CC(=O)NC12CC3CC(CC(C3)C1)C2)Nc1ccc(F)cc1 (stereo not drawn)	inconclusive: 11.7 µM [inhibitor, single point]
CCn1c(SCC(=O)Nc2cc(C)on2)nc2sc(C)c(C)c2c1=O	active: 11.7 µM
Cc1ncsc1CCOC(=O)C1C2CC3CC(C2)CC1C3 (stereo not drawn)	active: 13.1 µM
CCOC(=O)CC1(NC(=O)C2CCC(=O)N(Cc3ccccc3OC)C2)CCCCC1 (stereo not drawn)	inconclusive: 4.15 µM [inhibitor, partial curve, poor fit]
CCCn1c(SCC(=O)c2ccc3c(c2)NC(=O)CO3)nc2ccccc21	inactive
CCCCCC(=O)Nc1nc(C)c(-c2csc(Nc3ccccc3OC)n2)s1	active: 2.94 µM
COc1cc(/C=N\NC(=O)c2ccc(-c3ccccc3)cc2)cc(OC)c1OC(C)=O	inconclusive: 11.7 µM [inhibitor, partial curve, poor fit]
CC1(C)CC(=O)C2=C(C1)Nc1ccccc1NC2c1cc(Cl)ccc1O (stereo not drawn)	inconclusive: 13.1 µM [inhibitor, single point]
CC(C)Oc1ccc(N2CC(C(=O)Nc3ccc(N4CCOCC4)cc3)CC2=O)cc1 (stereo not drawn)	inconclusive: 18.5 µM [inhibitor, single point]
CCOC(=O)C1CCCN(C(=O)c2cc(S(=O)(=O)N3CCCCC3)ccc2C)C1 (stereo not drawn)	inconclusive: 4.65 µM [inhibitor, partial curve]
CCO[C@@H]1OC(C(=O)N2CCN(Cc3ccc4c(c3)OCO4)CC2)=C[C@H](c2ccc3c(c2)OCO3)[C@H]1CCCO	active: 3.29 µM
COc1cc(OC)cc(-c2c(-c3cccs3)c3cc(-c4ccn[nH]4)ccc3n2C)c1	inconclusive: 2.08 µM [inhibitor, partial curve, poor fit]
CCCCN(CC)Cc1ccc(CNC(=O)Nc2ccc(F)cc2)o1	inconclusive: 16.5 µM [inhibitor, single point]
COc1ccc(OC)c(NC(=O)Nc2ccc(Cl)cc2)c1	inconclusive: 18.5 µM [inhibitor, single point]
CC(Oc1ccccc1F)c1nnc(SCC(=O)NCc2ccc3c(c2)OCO3)o1 (stereo not drawn)	inconclusive: 18.5 µM [inhibitor, single point]
Cc1ccc2nc(NC(=O)c3ccc4c(c3)OCO4)sc2c1	inactive

Reformatted as labelled records: 4 of the compounds above
O=C(/C=C/c1ccc(Cl)cc1Cl)NC(=S)Nc1ccc(CN2CCOCC2)cc1
  Potency: inactive
CN(CCCNC(=O)CCc1cn(C)c2ccccc12)C1CCCCC1
  Potency: inactive
O=C(CS(=O)CC(=O)NC12CC3CC(CC(C3)C1)C2)Nc1ccc(F)cc1 (stereo not drawn)
  Potency: inconclusive: 11.7 µM [inhibitor, single point]
CCn1c(SCC(=O)Nc2cc(C)on2)nc2sc(C)c(C)c2c1=O
  Potency: active: 11.7 µM

Not a retest: entries from further up.
Structure (SMILES)	Potency
CCCCCC(=O)Nc1nc(C)c(-c2csc(Nc3ccccc3OC)n2)s1	active: 2.94 µM
COc1cc(/C=N\NC(=O)c2ccc(-c3ccccc3)cc2)cc(OC)c1OC(C)=O	inconclusive: 11.7 µM [inhibitor, partial curve, poor fit]

The list goes on.

Structure (SMILES)	Potency
O=C(COC(=O)c1cncc(Br)c1)Nc1nc(-c2ccc(F)cc2)cs1	inactive
COc1ccc(NC2CC(=O)N(c3ccc(C(=O)O)cc3)C2=O)cc1 (stereo not drawn)	inactive
O=C(O)CCN1C(=O)S/C(=C\c2cccnc2)C1=O	inconclusive: 10.4 µM [inhibitor, partial curve]
CC(/C=N/Nc1nc(C)cc(C)n1)=C\c1ccc(C(C)C)cc1	inconclusive: 18.5 µM [inhibitor, single point]
CCCOc1ccc(N2C(=O)CC(N(CCOC34CC5CC(CC(C5)C3)C4)C(C)=O)C2=O)cc1 (stereo not drawn)	active: 5.22 µM
CCn1c(O)c(/C=N/N=C/c2ccccc2)c2ccc(C3=NNC(=O)CC3)cc21	inconclusive: 9.28 µM [inhibitor, single point]
COC(=O)c1sccc1NC(=O)CSc1cccc(Cl)c1Cl	inactive
CCn1c(CNC(=O)c2ccc(Cl)cc2)nnc1SCC(=O)NC1=NCCS1	active: 8.28 µM
COC(=O)CCC(=O)OC1(C)C(=O)C=C2C=C(C3CC3)N(CC(C)C)C=C2C1=O (stereo not drawn)	active: 1.85 µM
COc1ccc(-c2cc(C(=O)N/N=C/c3cccnc3)c3ccccc3n2)cc1	inconclusive: 10.4 µM [inhibitor, single point]
COc1ccccc1CCC(=O)N(C)CC(=O)Nc1ccc(F)cc1	inconclusive: 18.5 µM [inhibitor, single point]
Cc1ccc(Cl)cc1N1CCN(C2CCCCC2NS(=O)(=O)c2ccccc2)CC1 (stereo not drawn)	inactive
CCOc1ccc2nc(N3C(=O)/C(=C/c4ccccc4)NC3=S)sc2c1	active: 4.65 µM
Clc1ccc2scc(CN3CCCCC3)c2c1	inconclusive: 13.1 µM [inhibitor, partial curve, poor fit]
COc1ccc(CN(C)CC(=O)NC(C)c2ccccc2)cc1OC (stereo not drawn)	inconclusive: 3.29 µM [inhibitor, partial curve, poor fit]
Cc1cc(=O)oc2cc(OCC(=O)N3CCN(c4ccccc4)CC3)ccc12	inconclusive: 18.5 µM [inhibitor, single point]
O=C(NC(=S)N1CCOCC1)c1ccc(F)cc1	inactive
Cc1ccc2nc(C)c3c(c2c1)N(c1ccccc1)CC3	active: 6.57 µM
CC1CCc2nc(NC(=O)CN3CCN(Cc4ccc5c(c4)OCO5)CC3)sc2C1 (stereo not drawn)	inconclusive: 16.5 µM [inhibitor, partial curve, poor fit]
CCN1C(=O)[C@H]2[C@@H](c3ccc(-c4ccc(C(C)=O)cc4)cc3)N[C@@](Cc3ccccc3)(C(=O)OC)[C@H]2C1=O	active: 10.4 µM
O=C(N1CCOCC1)N1CCN(Cc2ccccc2)CC1	active: 1.65 µM
COc1ccc(-c2cc(C)no2)cc1S(=O)(=O)N1CCN(C(=O)c2ccco2)CC1	inconclusive: 13.1 µM [inhibitor, partial curve]
COc1ccc(NC(=O)CN(c2ccccc2)S(=O)(=O)c2ccccc2)c(OC)c1	inactive

Structure (SMILES)	Potency
C=CCSc1nc(NC)c2sccc2n1	inconclusive: 8.28 µM [inhibitor, partial curve]
Cc1ccc(C(=O)NC(=S)N2CCN(C)CC2)cc1Br	inconclusive: 18.5 µM [inhibitor, single point]
Cc1nn(CC(=O)OCC(=O)Nc2c(C(C)C)cccc2C(C)C)c(C)c1[N+](=O)[O-]	inactive
Cc1cccn2c(=O)c(-c3nnn[nH]3)cnc12	inconclusive: 19 µM [inhibitor, partial curve, poor fit]
Cc1cccc(NC(=O)CCC(=O)Nc2nnc(C3CCCCC3)s2)c1	inconclusive: 18.5 µM [inhibitor, partial curve, poor fit]
O=C(NCCC1CCCCN1S(=O)(=O)c1ccc(F)cc1)C(=O)NCc1ccncc1 (stereo not drawn)	inconclusive: 18.5 µM [inhibitor, single point]
O=C(O)/C=C/C(=O)NCCc1ccccc1	inconclusive: 9.28 µM [inhibitor, single point]
S=C(N/N=C/c1ccc2ncccc2c1)Nc1ccccc1	inactive
CO[C@H]1C[C@@H]2CC[C@@H](C)[C@@](O)(O2)C(=O)C(=O)N2CCCC[C@H]2C(=O)O[C@H]([C@H](C)C[C@@H]2CC[C@@H](O)[C@H](OC)C2)CC(=O)[C@H](C)C=C(C)[C@@H](O)[C@@H](OC)C(=O)[C@H](C)C[C@H](C)C=CC=CC=C1C	active: 0.928 µM
O=C(NNS(=O)(=O)c1ccc(F)cc1)C1CCCCC1	inconclusive: 11.7 µM [inhibitor, single point]
CCC/C=N/NC(=O)c1cccc(Br)c1	inconclusive: 18.5 µM [inhibitor, partial curve, poor fit]
COc1cccc(-c2nnc3n2N=C(C(C)(C)C)CS3)c1	active: 13.1 µM
O=C(Nc1cccc(S(=O)(=O)Nc2ccc(Cl)cc2)c1)c1ccc[n+]([O-])c1	inactive
O=C(Nc1nnc(-c2ccccc2)o1)C1CCCCC1	inconclusive: 18.5 µM [inhibitor, single point]
O=C(NNc1ccccn1)C(c1ccccc1)c1ccccc1	inconclusive: 1.85 µM [inhibitor, partial curve, poor fit]
Cc1cc(C)nc(N2CCC(C(=O)NCc3ccccc3)CC2)n1	inconclusive: 14.7 µM [inhibitor, partial curve, poor fit]
CC(C)n1ncc2c(C(=O)NCCc3ccc(S(N)(=O)=O)cc3)cc(C3CC3)nc21	inconclusive: 18.5 µM [inhibitor, single point]
Cc1ccc2cc(CN(c3cccc(C)c3C)S(=O)(=O)c3ccccc3)c(=O)[nH]c2c1	inactive
O=C(COC(=O)c1ccncc1)Nc1cc(S(=O)(=O)N2CCOCC2)ccc1Cl	inconclusive: 4.15 µM [inhibitor, full curve]
O=C1O/C(=C/c2ccccc2)c2ccccc21	inactive
COc1ccc(/C=C2\Oc3cc(OCC(=O)N4CCC(C(=O)O)CC4)ccc3C2=O)c(OC)c1OC	inconclusive: 13.1 µM [inhibitor, partial curve, poor fit]
O=C(Cc1n[nH]c(=O)c2ccccc12)Nc1cccc(S(=O)(=O)N2CCCC2)c1	inconclusive: 18.5 µM [inhibitor, single point]
